Results reported in US20220177596A1.
No constants are given. Whether binding was seen depends on the method and setting. Some results given as binding are weak or reduced against the parent protein; the word gives no strength.

Chains of the proteins cited; added tags and fusions are not shown. Lines headed by an entry give the natural chain unless they say otherwise; changes in a name come on top.
UniProt P25942: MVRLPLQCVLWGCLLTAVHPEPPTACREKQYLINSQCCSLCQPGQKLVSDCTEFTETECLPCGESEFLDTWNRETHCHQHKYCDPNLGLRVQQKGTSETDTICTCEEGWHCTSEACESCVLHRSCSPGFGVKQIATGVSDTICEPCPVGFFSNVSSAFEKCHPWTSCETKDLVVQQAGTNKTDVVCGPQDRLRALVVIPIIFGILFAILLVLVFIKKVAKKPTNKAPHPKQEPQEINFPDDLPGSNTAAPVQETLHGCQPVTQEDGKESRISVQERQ

Molecular target: human-CD40 monomer (human) (UniProt P25942)
Test: SPR 2 pt screen

Binder	binding
humanized Y1238 hz1 (hz-HC1 / hz-LC1), IgG1.3f (antibody, V domains shown) VH: QVQLVQSGAEVKKPGASVKVSCKASGYAFTNYLIEWVRQAPGQGLEWMGVINPGSGGTNYNEKFKGRVTMTRDTSISTAYMELSRLRSDDTAVYYCARSQLGRRFDYWGQGTLVTVSS VL: DIQMTQSPSSLSASVGDRVTITCKASQDVRTGVAWYQQKPGKAPKLLIYSASYRNTGVPSRFSGSGSGTDFTFTISSLQPEDIATYYCQQHYSPPYTFGGGTKVEIK	binds
humanized Y1238 hz16 (hz-HC4 / hz-LC1), IgG1.3f (antibody, V domains shown) VH: QVQLVQSGAEVKKPGASVKVSCKASGYAFTNYLIEWVRQAPGQGLEWMGVINPGSGGTNYNEKFKGRVTMTADKSISTAYMELSRLRSDDTAVYYCARSQLGRRFDYWGQGTLVTVSS VL: DIQMTQSPSSLSASVGDRVTITCKASQDVRTGVAWYQQKPGKAPKLLIYSASYRNTGVPSRFSGSGSGTDFTFTISSLQPEDIATYYCQQHYSPPYTFGGGTKVEIK	binds
humanized Y1238 hz7 (hz-HC2 / hz-LC2), IgG1.3f (antibody, V domains shown) VH: QVQLVQSGAEVKKPGASVKVSCKASGYAFTNYLIEWVRQAPGQGLEWMGVINPGSGGTNYNEKFKGRVTMTADTSISTAYMELSRLRSDDTAVYYCARSQLGRRFDYWGQGTLVTVSS VL: DIQMTQSPSSLSASVGDRVTITCKASQDVRTGVAWYQQKPGKAPKLLIYSASYRNTGVPSRFSGSRSGTDFTFTISSLQPEDIATYYCQQHYSPPYTFGGGTKVEIK	binds
humanized Y1238 hz4 (hz-HC1 / hz-LC4), IgG1.3f (antibody, V domains shown) VH: QVQLVQSGAEVKKPGASVKVSCKASGYAFTNYLIEWVRQAPGQGLEWMGVINPGSGGTNYNEKFKGRVTMTRDTSISTAYMELSRLRSDDTAVYYCARSQLGRRFDYWGQGTLVTVSS VL: DIQMTQSPSSLSASVGDRVTITCKASQDVRTGVAWYQQKPGQSPKLLIYSASYRNTGVPSRFSGSRSGTDFTFTISSLQAEDIAVYYCQQHYSPPYTFGGGTKVEIK	binds
humanized Y1238 hz8 (hz-HC2 / hz-LC3), IgG1.3f (antibody, V domains shown) VH: QVQLVQSGAEVKKPGASVKVSCKASGYAFTNYLIEWVRQAPGQGLEWMGVINPGSGGTNYNEKFKGRVTMTADTSISTAYMELSRLRSDDTAVYYCARSQLGRRFDYWGQGTLVTVSS VL: DIQMTQSPSSLSASVGDRVTITCKASQDVRTGVAWYQQKPGQSPKLLIYSASYRNTGVPSRFSGSRSGTDFTFTISSLQPEDIAVYYCQQHYSPPYTFGGGTKVEIK	binds
humanized Y1238 hz10 (hz-HC2 / hz-LC5), IgG1.3f (antibody, V domains shown) VH: QVQLVQSGAEVKKPGASVKVSCKASGYAFTNYLIEWVRQAPGQGLEWMGVINPGSGGTNYNEKFKGRVTMTADTSISTAYMELSRLRSDDTAVYYCARSQLGRRFDYWGQGTLVTVSS VL: DIQMTQSPSSLSASVGDRVTITCKASQDVRTGVAWYQQKPGQAPKLLIYSASYRNTGVPSRFSGSRSGTDFTFTISSLQPEDIAVYYCQQHYSPPYTFGGGTKVEIK	binds
humanized Y1238 hz5 (hz-HC1 / hz-LC5), IgG1.3f (antibody, V domains shown) VH: QVQLVQSGAEVKKPGASVKVSCKASGYAFTNYLIEWVRQAPGQGLEWMGVINPGSGGTNYNEKFKGRVTMTRDTSISTAYMELSRLRSDDTAVYYCARSQLGRRFDYWGQGTLVTVSS VL: DIQMTQSPSSLSASVGDRVTITCKASQDVRTGVAWYQQKPGQAPKLLIYSASYRNTGVPSRFSGSRSGTDFTFTISSLQPEDIAVYYCQQHYSPPYTFGGGTKVEIK	binds
humanized Y1238 hz2 (hz-HC1 / hz-LC2), IgG1.3f (antibody, V domains shown) VH: QVQLVQSGAEVKKPGASVKVSCKASGYAFTNYLIEWVRQAPGQGLEWMGVINPGSGGTNYNEKFKGRVTMTRDTSISTAYMELSRLRSDDTAVYYCARSQLGRRFDYWGQGTLVTVSS VL: DIQMTQSPSSLSASVGDRVTITCKASQDVRTGVAWYQQKPGKAPKLLIYSASYRNTGVPSRFSGSRSGTDFTFTISSLQPEDIATYYCQQHYSPPYTFGGGTKVEIK	binds
humanized Y1238 hz3 (hz-HC1 / hz-LC3), IgG1.3f (antibody, V domains shown) VH: QVQLVQSGAEVKKPGASVKVSCKASGYAFTNYLIEWVRQAPGQGLEWMGVINPGSGGTNYNEKFKGRVTMTRDTSISTAYMELSRLRSDDTAVYYCARSQLGRRFDYWGQGTLVTVSS VL: DIQMTQSPSSLSASVGDRVTITCKASQDVRTGVAWYQQKPGQSPKLLIYSASYRNTGVPSRFSGSRSGTDFTFTISSLQPEDIAVYYCQQHYSPPYTFGGGTKVEIK	binds
humanized Y1238 hz19 (hz-HC4 / hz-LC4), IgG1.3f (antibody, V domains shown) VH: QVQLVQSGAEVKKPGASVKVSCKASGYAFTNYLIEWVRQAPGQGLEWMGVINPGSGGTNYNEKFKGRVTMTADKSISTAYMELSRLRSDDTAVYYCARSQLGRRFDYWGQGTLVTVSS VL: DIQMTQSPSSLSASVGDRVTITCKASQDVRTGVAWYQQKPGQSPKLLIYSASYRNTGVPSRFSGSRSGTDFTFTISSLQAEDIAVYYCQQHYSPPYTFGGGTKVEIK	binds
humanized Y1238 hz9 (hz-HC2 / hz-LC4), IgG1.3f (antibody, V domains shown) VH: QVQLVQSGAEVKKPGASVKVSCKASGYAFTNYLIEWVRQAPGQGLEWMGVINPGSGGTNYNEKFKGRVTMTADTSISTAYMELSRLRSDDTAVYYCARSQLGRRFDYWGQGTLVTVSS VL: DIQMTQSPSSLSASVGDRVTITCKASQDVRTGVAWYQQKPGQSPKLLIYSASYRNTGVPSRFSGSRSGTDFTFTISSLQAEDIAVYYCQQHYSPPYTFGGGTKVEIK	binds
humanized Y1238 hz6 (hz-HC2 / hz-LC1), IgG1.3f (antibody, V domains shown) VH: QVQLVQSGAEVKKPGASVKVSCKASGYAFTNYLIEWVRQAPGQGLEWMGVINPGSGGTNYNEKFKGRVTMTADTSISTAYMELSRLRSDDTAVYYCARSQLGRRFDYWGQGTLVTVSS VL: DIQMTQSPSSLSASVGDRVTITCKASQDVRTGVAWYQQKPGKAPKLLIYSASYRNTGVPSRFSGSGSGTDFTFTISSLQPEDIATYYCQQHYSPPYTFGGGTKVEIK	binds
humanized Y1238 hz21 (hz-HC5 / hz-LC1), IgG1.3f (antibody, V domains shown) VH: QVQLVQSGAEVKKPGASVKVSCKASGYAFTNYLIEWVRQRPGQGLEWMGVINPGSGGTNYNEKFKGRVTMTADKSISTAYMELSRLRSDDTAVYYCARSQLGRRFDYWGQGTLVTVSS VL: DIQMTQSPSSLSASVGDRVTITCKASQDVRTGVAWYQQKPGKAPKLLIYSASYRNTGVPSRFSGSGSGTDFTFTISSLQPEDIATYYCQQHYSPPYTFGGGTKVEIK	binds
humanized Y1238 hz20 (hz-HC4 / hz-LC5), IgG1.3f (antibody, V domains shown) VH: QVQLVQSGAEVKKPGASVKVSCKASGYAFTNYLIEWVRQAPGQGLEWMGVINPGSGGTNYNEKFKGRVTMTADKSISTAYMELSRLRSDDTAVYYCARSQLGRRFDYWGQGTLVTVSS VL: DIQMTQSPSSLSASVGDRVTITCKASQDVRTGVAWYQQKPGQAPKLLIYSASYRNTGVPSRFSGSRSGTDFTFTISSLQPEDIAVYYCQQHYSPPYTFGGGTKVEIK	binds
humanized Y1238 hz17 (hz-HC4 / hz-LC2), IgG1.3f (antibody, V domains shown) VH: QVQLVQSGAEVKKPGASVKVSCKASGYAFTNYLIEWVRQAPGQGLEWMGVINPGSGGTNYNEKFKGRVTMTADKSISTAYMELSRLRSDDTAVYYCARSQLGRRFDYWGQGTLVTVSS VL: DIQMTQSPSSLSASVGDRVTITCKASQDVRTGVAWYQQKPGKAPKLLIYSASYRNTGVPSRFSGSRSGTDFTFTISSLQPEDIATYYCQQHYSPPYTFGGGTKVEIK	binds
humanized Y1238 hz18 (hz-HC4 / hz-LC3), IgG1.3f (antibody, V domains shown) VH: QVQLVQSGAEVKKPGASVKVSCKASGYAFTNYLIEWVRQAPGQGLEWMGVINPGSGGTNYNEKFKGRVTMTADKSISTAYMELSRLRSDDTAVYYCARSQLGRRFDYWGQGTLVTVSS VL: DIQMTQSPSSLSASVGDRVTITCKASQDVRTGVAWYQQKPGQSPKLLIYSASYRNTGVPSRFSGSRSGTDFTFTISSLQPEDIAVYYCQQHYSPPYTFGGGTKVEIK	binds
